Sequences of proteins named here, by UniProt entry; tags and fusion partners are left off.
UniProt Q02293, whole entry: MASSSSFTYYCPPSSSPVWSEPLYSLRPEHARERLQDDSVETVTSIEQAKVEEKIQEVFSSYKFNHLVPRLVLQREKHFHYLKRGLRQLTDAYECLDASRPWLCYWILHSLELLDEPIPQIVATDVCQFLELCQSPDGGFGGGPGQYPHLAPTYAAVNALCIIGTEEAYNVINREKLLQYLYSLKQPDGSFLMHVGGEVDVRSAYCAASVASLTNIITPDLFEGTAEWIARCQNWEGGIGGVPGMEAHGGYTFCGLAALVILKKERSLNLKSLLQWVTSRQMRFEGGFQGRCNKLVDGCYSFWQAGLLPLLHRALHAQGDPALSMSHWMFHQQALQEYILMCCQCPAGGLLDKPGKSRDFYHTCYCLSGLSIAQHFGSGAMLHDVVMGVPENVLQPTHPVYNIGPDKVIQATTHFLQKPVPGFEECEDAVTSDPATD

Some entries share one result that the patent states for a list of compounds.
These compounds were tested against farnesyl protein transferase (Rattus norvegicus, UniProt Q02293+Q04631) (assay: FPT IC50 (inhibition of farnesyl protein transferase, in vitro enzyme assay)). Details: value is the range stated for the group unless single.
Type: biochemical
For `Cc1cn(CCCN(CCc2ccccc2)C(=O)[C@H]2CN([C@@H]3c4ccc(Cl)cc4CCc4cccnc43)CCN2C(=O)OC2CCCCC2)cn1` (single isomer, unassigned) [Example 314], the IC50 was no more than 6.7 nM. For `CC(C)(C)NC(=O)N1CCN(C2c3ccc(Cl)cc3CCc3cc(Br)cnc32)C[C@@H]1C(=O)NCCCn1cnc(CO)c1` (some centres unmarked) [Example 276], the IC50 was no more than 6.7 nM. `Cc1cn(CCCN(Cc2ccccc2)C(=O)[C@H]2CN([C@H]3c4ccc(Cl)cc4CCc4cccnc43)CCN2C(=O)OC(C)(C)C)c(C)n1` [Example 363] gave an IC50 of no more than 6.7 nM. `Cc1cn(CCCN(Cc2cncnc2)C(=O)[C@H]2CN([C@H]3c4ccc(Cl)cc4CCc4cccnc43)CCN2C(=O)OC2CCCCC2)cn1` (single isomer, unassigned) [Example 329] gave an IC50 of no more than 6.7 nM. `CC(C)(C)OC(=O)N1CCN(C2c3ccc(Cl)cc3CCc3cc(Br)cnc32)C[C@@H]1ON(CCCn1ccnc1)CCc1ccccc1` (single isomer, unassigned) [125 (Isomer A)] was tested, and the IC50 was no more than 6.7 nM. With `Cc1nccn1CCCNC(=O)[C@H]1CN(C2c3ccc(Cl)cc3CCc3cc(Br)cnc32)CCN1C(=O)NC1CCCCC1` (some centres unmarked) [Example 270] the IC50 was no more than 6.7 nM. With `CC(C)(C)C(=O)N1CCN([C@@H]2c3ccc(Cl)cc3CCc3cc(Br)cnc32)C[C@@H]1C(=O)N(CCCn1ccnc1)Cc1ccccc1` [Example 191] the IC50 was no more than 6.7 nM. `Cc1cn(CCCN(Cc2ccccc2)C(=O)[C@H]2CN([C@@H]3c4ccc(Cl)cc4CCc4cc(Br)cnc43)CCN2C(=O)OC(C)C)cn1` [Example 196] was tested, and the IC50 was no more than 6.7 nM. In the case of `Cc1cn(CCCN(Cc2ccccc2O)C(=O)[C@H]2CN([C@H]3c4ccc(Cl)cc4CCc4cccnc43)CCN2C(=O)OC2CCCCC2)cn1` (single isomer, unassigned) [Example 316], the IC50 is reported as no more than 6.7 nM. In the case of `Cc1cn(CCN(CC2CC2)C(=O)[C@H]2CN([C@H]3c4ccc(Cl)cc4CCc4cccnc43)CCN2C(=O)OC2CCCCC2)cn1` (single isomer, unassigned) [Example 327], the IC50 is reported as no more than 6.7 nM. In the case of `CC(C)(C)NC(=O)N1CCN([C@@H]2c3ccc(Cl)cc3CCc3cccnc32)C[C@@H]1C(=O)N(CCCn1ccnc1)Cc1ccccc1` [Example 146], the IC50 is reported as no more than 6.7 nM. For `CC(C)(C)OC(=O)N1CCN(C2c3ccc(Cl)cc3CCc3cc(Br)cnc32)C[C@@H]1C(=O)N(CCCn1ccnc1)Cc1ccccc1` (some centres unmarked) [Example 113], the IC50 was no more than 6.7 nM. `NC(=O)N1CCC(CC(=O)N2CCN([C@H]3c4ccc(Cl)cc4CCc4cc(Br)cnc43)C[C@@H]2C(=O)NCCCn2ccnc2)CC1` [Example 70] showed an IC50 of no more than 6.7 nM. For `Cc1cn(CCCN(Cc2ccccc2)C(=O)[C@H]2CN(C3c4ccc(Cl)cc4CCc4cc(Br)cnc43)CCN2C(=O)OC(C)(C)C)c(C)n1` (single isomer, unassigned) [Example 343], the IC50 was no more than 6.7 nM. `O=C(NCCn1nnc2ccccc21)[C@H]1CN(C2c3ccc(Cl)cc3CCc3cc(Br)cnc32)CCN1C(=O)NC1CCCCC1` (some centres unmarked) [Example 292] was tested, and the IC50 was no more than 6.7 nM. `CC(C)(C)OC(=O)N1CCC([C@H]2c3ncc(Br)cc3CCc3cc(Cl)cc(Br)c32)CC1C(=O)NCCn1ccnc1` (some centres unmarked) [Example 245] was tested, and the IC50 was no more than 6.7 nM. In the case of `NC(=O)N1CCC(CC(=O)N2CCN([C@@H]3c4ccc(Cl)cc4CCc4cc(Br)cnc43)C[C@@H]2C(=O)NCCCn2ccnc2)CC1` [Example 69], the IC50 is reported as no more than 6.7 nM. With `CC(C)(C)NC(=O)N1CCN(C2c3ccc(Cl)cc3CCc3cc(Br)cnc32)C[C@@H]1C(=O)NCCCn1ccnc1N` (some centres unmarked) [Example 103] the IC50 was no more than 6.7 nM. For `CC(O)c1nccn1CCCNC(=O)[C@H]1CN(C2c3ccc(Cl)cc3CCc3cc(Br)cnc32)CCN1C(=O)NC(C)(C)C` (some centres unmarked) [Example 108], the IC50 was no more than 6.7 nM. In the case of `CC(C)(C)NC(=O)N1CCC(C2c3ncc(Br)cc3CCc3cc(Cl)cc(Br)c32)CC1C(=O)N(CCCn1ccnc1)Cc1ccccc1` (centres unmarked) [Example 252], the IC50 is reported as no more than 6.7 nM. In the case of `Cn1cncc1CCN(CC1CC1)C(=O)[C@H]1CN(C2c3ccc(Cl)cc3CCc3cc(Br)cnc32)CCN1C(=O)OC1CCCCC1` (some centres unmarked) [Example 286A], the IC50 is reported as no more than 6.7 nM. With `Cc1cn(CCN(Cc2ccccc2)C(=O)[C@H]2CN([C@H]3c4ccc(Cl)cc4CCc4cccnc43)CCN2C(=O)OC2CCCCC2)cn1` (single isomer, unassigned) [Example 311] the IC50 was no more than 6.7 nM. In the case of `Cc1cn(CCCN(Cc2ccccc2)C(=O)[C@H]2CN([C@@H]3c4ccc(Cl)cc4CCc4cccnc43)CCN2C(=O)OC2CCCCC2)cn1` [Example 198], the IC50 is reported as no more than 6.7 nM. Compound `O=C(C1CC([C@H]2c3ccc(Cl)cc3CCc3cc(Br)cnc32)CCN1C(=O)NC1CCCCC1)N(CCCn1ccnc1)Cc1ccccc1` (single isomer, unassigned) [Example 79 Step B (Isomer A)] has an IC50 of no more than 2.7 nM. In the case of `CC(C)CC(=O)N1CCN([C@H]2c3ccc(Cl)cc3CCc3cc(Br)cnc32)C[C@@H]1C(=O)N(CCCn1ccnc1)Cc1ccccc1` [Example 221], the IC50 is reported as no more than 6.7 nM. With `CC(CCNC(=O)[C@H]1CN(C2c3ccc(Cl)cc3CCc3cc(Br)cnc32)CCN1C(=O)NC1CCCCC1)n1ccnc1` (some centres unmarked) [Example 19] the IC50 was no more than 6.7 nM. In the case of `Cc1ncn(CCCN(Cc2ccccc2)C(=O)[C@H]2CN(C3c4ccc(Cl)cc4CCc4cc(Br)cnc43)CCN2C(=O)OC2CCCCC2)c1C` (single isomer, unassigned) [Example 377], the IC50 is reported as no more than 6.7 nM. For `Cc1cn(CC(O)(CNC(=O)[C@H]2CN(C3c4ccc(Cl)cc4CCc4cc(Br)cnc43)CCN2C(=O)OC(C)(C)C)c2ccccc2)cn1` (single isomer, unassigned) [Example 356], the IC50 was no more than 6.7 nM. Work on `O=C(NCCCn1ccnc1)C1CN(C2c3ccc(Cl)cc3CCc3cc(Br)cnc32)CCN1C(=O)Nc1cc[n+]([O-])cc1` (racemic) [Example 71] yielded an IC50 of no more than 6.7 nM. `Cc1cn(CCCN(Cc2ccccc2)C(=O)[C@@H]2CN([C@H]3c4ccc(Cl)cc4CCc4cccnc43)CCN2C(=O)OC2CCCCC2)cn1` (single isomer, unassigned) [Example 321] gave an IC50 of no more than 6.7 nM. `CCOC(=O)N1CC[C@@H]([C@H]2c3ncc(Br)cc3CCc3cc(Cl)cc(Br)c32)CC1C(=O)NCCCn1ccnc1` (some centres unmarked) [Example 248] was tested, and the IC50 was no more than 6.7 nM. `Cc1cn(CCCN(Cc2ccccc2O)C(=O)[C@H]2CN(C3c4ccc(Cl)cc4CCc4ccc[n+]([O-])c43)CCN2C(=O)OC2CCCCC2)cn1` (single isomer, unassigned) [Example 369] was tested, and the IC50 was no more than 6.7 nM. Compound `O=C(NCCCn1ccnc1)C1C[C@H]([C@H]2c3ncc(Br)cc3CCc3cc(Cl)cc(Br)c32)CCN1C(=O)Cc1cc[n+]([O-])cc1` (some centres unmarked) [Example 247] has an IC50 of no more than 6.7 nM. Work on `O=C(C1CC(C2c3ccc(Cl)cc3CCc3cc(Br)cnc32)CCN1C(=O)NC1CCCCC1)N(CCCn1ccnc1)Cc1ccccc1` (centres unmarked) [Example 95] yielded an IC50 of no more than 6.7 nM. `Cc1nccn1CCCNC(=O)[C@H]1CN(C2c3ccc(Cl)cc3CCc3cc(Br)cnc32)CCN1C(=O)N(C)C` (some centres unmarked) [Example 285] showed an IC50 of no more than 6.7 nM. `CC(C)(C)NC(=O)N1CCN([C@@H]2c3ccc(Cl)cc3CCc3cc(Br)cnc32)C[C@@H]1C(=O)NCCC1(n2ccnc2)CC1` [Example 13] was tested, and the IC50 was no more than 6.7 nM. In the case of `O=C([C@H]1CN([C@H]2c3ccc(Cl)cc3CCc3cc(Br)cnc32)CCN1C(=O)C1CC1)N(CCCn1ccnc1)Cc1ccccc1` [Example 181], the IC50 is reported as no more than 6.7 nM. `Cn1cncc1CCCNC(=O)[C@H]1CN(C2c3ccc(Cl)cc3CCc3cc(Br)cnc32)CCN1C(=O)NC1CCCCC1` (some centres unmarked) [Example 101] gave an IC50 of no more than 6.7 nM. For `CC(C)(C)OC(=O)N1CCN(C2c3ccc(Cl)cc3CCc3cc(Br)cnc32)C[C@@H]1C(=O)N(CCCn1ccnc1)Cc1ccccn1` (some centres unmarked) [Example 217], the IC50 was no more than 6.7 nM. Compound `Cc1nccn1CCNC(=O)[C@H]1CN(C2c3ccc(Cl)cc3CCc3cc(Br)cnc32)CCN1C(=O)NC1CCCCC1` (some centres unmarked) [Example 257] has an IC50 of no more than 6.7 nM. `CC(C)(C)NC(=O)N1CCN([C@H]2c3ccc(Cl)cc3CCc3cccnc32)C[C@@H]1C(=O)N(CCCn1ccnc1)Cc1ccccc1` [Example 145] gave an IC50 of no more than 6.7 nM. `Cc1ncn(CCCN(Cc2ccccc2)C(=O)[C@H]2CN(C3c4ccc(Cl)cc4CCc4cc(Br)cnc43)CCN2C(=O)OC(C)(C)C)c1C` (single isomer, unassigned) [Example 345] showed an IC50 of no more than 6.7 nM. `Cc1nccn1CCNC(=O)[C@H]1CN(C2c3ccc(Cl)cc3CCc3cc(Br)cnc32)CCN1C(=O)NC(C)(C)C` (some centres unmarked) [Example 256] gave an IC50 of no more than 6.7 nM. In the case of `CC(C)COC(=O)N1CCN([C@@H]2c3ccc(Cl)cc3CCc3cc(Br)cnc32)C[C@@H]1C(=O)N(CCCn1ccnc1)Cc1ccccc1` [Example 184], the IC50 is reported as no more than 6.7 nM. Work on `O=C([C@H]1CN([C@H]2c3ccc(Cl)cc3CCc3cc(Br)cnc32)CCN1C(=O)NCCc1ccccc1)N(CCCn1ccnc1)Cc1ccccc1` [Example 137] yielded an IC50 of no more than 6.7 nM. `O=C([C@H]1CN([C@@H]2c3ccc(Cl)cc3CCc3cc(Br)cnc32)CCN1C(=O)OC1CCCC1)N(CCCn1ccnc1)Cc1ccccc1` [Example 189] showed an IC50 of no more than 6.7 nM. Work on `Cn1cncc1CCCN(Cc1ccccc1)C(=O)C1CN(C2c3ccc(Cl)cc3CCc3cc(Br)cnc32)CCN1C(=O)OC(C)(C)C` (centres unmarked) [Example 237] yielded an IC50 of no more than 6.7 nM. `CC(=O)N1CCN([C@@H]2c3ccc(Cl)cc3CCc3cc(Br)cnc32)C[C@@H]1C(=O)N(CCCn1ccnc1)Cc1ccccc1` [Example 151] was tested, and the IC50 was no more than 6.7 nM. In the case of `CCNC(=O)N1CCN([C@H]2c3ccc(Cl)cc3CCc3cc(Br)cnc32)C[C@@H]1C(=O)N(CCCn1ccnc1)Cc1ccccc1` [Example 133], the IC50 is reported as no more than 6.7 nM. `CC(C)c1cn(CCCN(Cc2ccccc2)C(=O)[C@H]2CN([C@H]3c4ccc(Cl)cc4CCc4cccnc43)CCN2C(=O)OC2CCCCC2)cn1` (single isomer, unassigned) [Example 328] showed an IC50 of no more than 6.7 nM. For `CS(=O)(=O)N1CCN([C@H]2c3ccc(Cl)cc3CCc3cc(Br)cnc32)C[C@@H]1C(=O)N(CCCn1ccnc1)Cc1ccccc1` (single isomer, unassigned) [Example 173], the IC50 was no more than 6.7 nM. Compound `CC(C)(CCNC(=O)[C@H]1CN([C@H]2c3ccc(Cl)cc3CCc3cc(Br)cnc32)CCN1C(=O)CC1CCN(C(N)=O)CC1)n1ccnc1` [Example 8] has an IC50 of no more than 6.7 nM. `CS(=O)(=O)N1CCC(C2c3ncc(Br)cc3CCc3cc(Cl)cc(Br)c32)CC1C(=O)NCCCn1ccnc1` (centres unmarked) [Example 249] was tested, and the IC50 was no more than 6.7 nM. With `O=C(C1CC(C2c3ncc(Br)cc3CCc3cc(Cl)cc(Br)c32)CCN1C(=O)NC1CCCCC1)N(CCCn1ccnc1)Cc1ccccc1` (centres unmarked) [Example 253] the IC50 was no more than 6.7 nM. Work on `Cc1nccn1CCCNC(=O)[C@H]1CN(C2c3ccc(Cl)cc3CCc3cc(Br)cnc32)CCN1C(=O)NC(C)(C)C` (some centres unmarked) [Example 268] yielded an IC50 of no more than 6.7 nM. `CC(C)(C)OC(=O)N1CCN([C@H]2c3ccc(Cl)cc3CCc3cc(Br)cnc32)C[C@@H]1C(=O)N(CCCn1cnc2ccccc21)Cc1ccccc1` [Example 355] was tested, and the IC50 was no more than 6.7 nM.
